Experimental data from PubChem BioAssay AID1259415 (National Center for Advancing Translational Sciences (NCATS), 2018).
Hit rate of the full screen: of about 410,000 compounds, about 18,000 (4.4%) were called active. The inconclusive results got no clear call from the source; some entries with a clear call stand among them for comparison. Cut-off read from the data, not from the text of the source: active = activity change below about -60%; inconclusive = no clear call, values can overlap the other calls; inactive = above about -39%.

assay: qHTS Assay for inhibitors of the human cytomegalovirus (HCMV); conditions: HFF cells, HCMV-luciferase reporter, 72 h; at 57.5 µM; hits give low values
In short: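 HFF cells seeded 16 h at 37C, treated with compounds, infected with luciferase-reporter HCMV at MOI 1 PFU/cell; luciferase read at 72 h post infection, normalized to buffer-only and Salinomycin controls.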
% is set by controls: 0 for no effect and ±100 for the full control effect.

Compound	activity change, negative = inhibition
COc1ccc(OC)c(NC(=O)Nc2cccc(OCc3cc(=O)n4cc(C)ccc4n3)c2)c1	inactive: -21.6%
COc1cccc(Nc2nc(-c3cccs3)nc3ccccc23)c1	inactive: 37.9%
COc1ccc(NC(=O)C2CCN(c3nc4ccccc4[nH]3)CC2)cc1OC	inconclusive: 0%
CC(C)Cn1c(SC(C)C(=O)Nc2ccc3c(c2)OCCO3)nc2ccccc2c1=O (stereo not given)	inconclusive: -40.3%
Cn1c(Sc2ccc(Cl)cc2)c(C=O)c2ccccc21	inconclusive: -56.5%
CC(C)CC1NC(=O)c2cc(Cl)ccc2-n2c1nc1ccccc1c2=O (stereo not given)	active: -99.6%
COc1ccc(-c2noc(CC(=O)N(C)c3ccccc3F)n2)cc1	inactive: 1.73%
COC(=O)c1sc(N)c(C(=O)OC)c1Cn1ncc(Cl)c(Cl)c1=O	inactive: 45.5%
CCCn1cc(C(=O)N(C)C2CCCN(Cc3ccccc3F)C2)c(C)n1 (stereo not given)	inconclusive: -40.3%
COc1ccc(C(=O)CCC(=O)N2CCN(c3cccc(Cl)c3)CC2)cc1	inconclusive: -55.3%
Cc1ccc([N+](=O)[O-])cc1NCC(=O)NN	inconclusive: -48.6%
c1ccc(-n2cc(CN3CCC(N4CCOCC4)CC3)c(-c3ccc4c(c3)OCO4)n2)cc1	inconclusive: -57.8%
CC(Sc1nc2ccccc2c(=O)n1CCc1ccc(S(N)(=O)=O)cc1)C(=O)NC(N)=O (stereo not given)	inconclusive: -49.1%
Cc1ccc(S(=O)(=O)N(C)C)cc1NC(=O)c1cncc(Br)c1	inconclusive: -54.7%
Nc1ccc(C(=O)OCc2ccncc2)cc1[N+](=O)[O-]	inactive: 37.3%
CC1CN(c2sc(S(C)(=O)=O)nc2S(=O)(=O)c2ccc(Cl)cc2)CC(C)O1 (stereo not given)	inactive: -29.4%
C=C1C(=O)OC2C=C(CO)C3OC3C3OC3(C)CC(OC(=O)/C(=C/C)COC(C)=O)C12 (stereo not given)	active: -100%
COc1ccc(C(=O)NC(C(=O)NCC2(N3CCCCC3)CCCCC2)C(C)C)cc1 (stereo not given)	active: -76.4%
CCN(CC)S(=O)(=O)c1cc(C(=O)NCCN2CCOCC2)ccc1Cl	inconclusive: -44.7%
O=c1c2[nH]c3ccc(F)cc3c2ncn1CCN1CCN(Cc2ccccc2)CC1	inactive: 15.6%
O=C(Nc1ccc(S(=O)(=O)Nc2ncccn2)cc1)c1cccc(Cl)c1	inactive: 14.5%
N=c1c(C(=O)NC2CCCCC2)cc2c(=O)n3ccccc3nc2n1Cc1ccccc1	inconclusive: -48.6%

Compounds above that contain two or more sulfur atoms:
Compound	activity change, negative = inhibition
CC(Sc1nc2ccccc2c(=O)n1CCc1ccc(S(N)(=O)=O)cc1)C(=O)NC(N)=O (stereo not given)	inconclusive: -49.1%
CC1CN(c2sc(S(C)(=O)=O)nc2S(=O)(=O)c2ccc(Cl)cc2)CC(C)O1 (stereo not given)	inactive: -29.4%

(continued)

Compound	activity change, negative = inhibition
Cc1ccc(C)c(C(=O)COC(=O)c2ccccc2N2C(=O)C3C4CCC(C4)C3C2=O)c1 (stereo not given)	inactive: 1.6%
CC1(C(=O)NC2CCN(Cc3ccccc3)CC2)CCN1CCc1ccccc1 (stereo not given)	inconclusive: -51.5%
CCOC(=O)C1(CCc2ccccc2)CCN(Cc2c(O)cccc2OC)CC1	inactive: -17.8%
CC(O)Cn1c(=O)c2c(nc(Br)n2Cc2ccccc2)n(C)c1=O (stereo not given)	inconclusive: -55%
COc1ccc2cc(C#N)c(N3CCN(C(=O)c4ccccc4C)CC3)nc2c1	inconclusive: -59.6%
COc1cc(O)c(CCC(=O)c2ccc(OC)c(OC)c2)c(OC)c1	inactive: 3.24%
CCN1CCC(N(Cc2ccc(F)cc2)C(=O)Nc2cc(C)ccc2C)CC1	inactive: -23.7%
COc1ccc(SN=C2C(C)=CC(=O)C=C2C)cc1	inactive: -0.257%
Cc1ccc(C(=O)NCCc2nnc3ccc(N4CCCC4)nn23)cc1	inconclusive: -41.2%
CCC(=O)Nc1nnc(-c2ccco2)o1	inactive: -16.9%
CC1(C)Cc2c(sc(NC(=O)c3ccccc3Cl)c2C(=O)O)CO1	inconclusive: -55.3%
COc1ccc(S(=O)(=O)CC2(O)CCN(C(=O)CC(C)C)CC2)cc1	inconclusive: -43.2%
Cc1nc(N2CCOCC2)c2c(C(=O)N3CCN(c4cc(Cl)ccc4C)CC3)c(C)oc2n1	inactive: -9.48%
Nc1cc(S(=O)(=O)Nc2ccccc2Cl)ccc1N1CCCCC1	inconclusive: -57.4%
O=C(Nc1ccc2c(c1)OCO2)c1ccc([N+](=O)[O-])cc1[N+](=O)[O-]	inactive: 107%
O=C(Nc1cccc(NC(=O)c2cccs2)c1)c1ccc([N+](=O)[O-])o1	active: -92.3%
Cc1csc2nc(O)c(C(=O)NCCCc3ccccc3)c(=O)n12	inconclusive: -45.7%
O=C(CC1CCCCC1)N=C1SC2CS(=O)(=O)CC2N1c1ccccc1 (stereo not given)	inconclusive: -57.1%
CCc1nnc(NC(=O)c2ccc(S(=O)(=O)N3CCc4ccccc4C3)cc2)s1	inactive: -24.8%
CCOc1ccc2[nH]c3ncccc3c(=O)c2c1	inconclusive: -42.2%
COc1cc(OC)c([C@H]2C=C(C)[C@H]3C[C@@H]2C3(C)C)c(OC)c1	inconclusive: -50.8%
Cc1ccc(-c2nc(N)n(S(C)(=O)=O)n2)cc1	inactive: 2.75%

Compound	activity change, negative = inhibition
COc1ccccc1NS(=O)(=O)c1ccc2c(c1)N(C(C)=O)CC(C)S2 (stereo not given)	inconclusive: -57.8%
CCOc1cc(/C=C2\SC(=O)N(CC(=O)Nc3ccccc3F)C2=O)cc([N+](=O)[O-])c1O	inconclusive: -56.4%
COC(=O)Nc1c(-c2ccccc2)nc2ccc(C)cn12	inconclusive: -44%
O=C(NCCN1CCOCC1)c1ccc(Cl)cc1	inconclusive: -40.4%
Cc1nc(-c2cccc(NC(=O)c3cccc(S(=O)(=O)N4CCCC4)c3)c2)cs1	inconclusive: -55.5%
COc1ccc(OC)c(NC(=O)Cn2nc3c(cc2=O)CCCC3)c1	inactive: 6.15%
COc1ccccc1NC(=O)c1cc(N)cc(C(=O)Nc2ccccc2OC)c1	inconclusive: -44.6%
CCN1CCCC1CNC(=O)c1ccc2c(c1)N(Cc1cccc(Cl)c1)C(=O)c1ccccc1S2(=O)=O (stereo not given)	inconclusive: -42.5%
CC1=CC(=O)C(C(C)C)=C/C1=N\OC(=O)c1cccc2nc(C)oc12	inconclusive: -49.3%
Cc1cccc(C)c1NC(=O)COC(=O)c1c2c(nc3ccccc13)/C(=C\c1ccc3c(c1)OCO3)CCC2	inconclusive: -40.8%
COC(=O)C(C)(C)ONC(=O)Nc1ccc(Br)cc1	inconclusive: -41.4%
Cc1ccc(Cn2c(C)c3cnn(CC(=O)N4CCC5(CC4)OCCO5)c(=O)c3c2C)cc1	inconclusive: -53.5%
Cc1cc(C)n(CC(=O)c2ccccc2)c(=O)c1C#N	inactive: 13.8%
COc1cc(N2CCOCC2)ccc1/C=C1\C(=O)NC(=O)N(Cc2cccs2)C1=O	inconclusive: -43.5%
Cc1ccc(S(=O)(=O)N(C)c2ccc(C(=O)N3CCC(C(N)=O)CC3)cc2)cc1	inconclusive: -44.6%
Cc1cc(C)c(S(=O)(=O)N2CCN(C(=O)c3cc4ccccc4oc3=O)CC2)c(C)c1	active: -102%
Cc1ccc(C(=O)C2CCN(S(=O)(=O)c3ccc(C(=O)O)cc3)CC2)cc1	inactive: -3.05%
CCS(=O)(=O)c1ccc2oc(SCC(=O)NCCC3=CCCCC3)nc2c1	active: -103%
CC1=C(C(=O)OC2CCCCC2)C(c2cccnc2)n2nnnc2N1 (stereo not given)	inconclusive: -57.6%
COc1ccc(-c2cc3c(=O)n(CC(=O)NCCCN4CCC(N5CCCCC5)CC4)nc(C)n3n2)cc1	inconclusive: -42.1%
Cc1ccc(S(=O)(=O)c2c(C)nn(-c3ccccc3)c2OC(=O)c2ccco2)cc1	inconclusive: -45.6%
C#CCOCCOCCOCCNc1nc(N2CCN(C(=O)Cn3cc(CC(C)O)nn3)CC2)nc(N2CCN(C(=O)[C@H](CCCCN)n3cc(CCCC)nn3)CC2)n1 (stereo not given in full)	inconclusive: -40.8%

Compound	activity change, negative = inhibition
CCOc1ccc(NC(=O)CSc2ccc3nnc(-c4ccccn4)n3n2)cc1	inactive: -17.6%
CCOC(=O)C1=C(N)OC2=C(C(=O)CCC2)C12C(=O)N(CC(N)=O)c1ccccc12 (stereo not given)	inconclusive: -43%
CN(Cc1ccccc1)C(=O)c1nn2cccnc2c1Cl	inconclusive: -47.2%
Cc1cccc(-n2nnc(C(=O)NCc3ccccc3Cl)c2N)c1	inconclusive: -46.4%
Cc1ccccc1OCCC(=O)N1CCN(S(=O)(=O)c2ccc(Br)cc2)CC1	inconclusive: -55.3%
Cc1ccc(CCNC(=O)c2ccc(CS(=O)(=O)c3ccc(Br)cc3)o2)cc1	inactive: -5.98%
COC(=O)CSc1nc2sc3c(c2c(=O)[nH]1)CCC3	inconclusive: -49.6%
CCn1ccnc1CN1CCCC(C(=O)c2ccc(SC)cc2)C1 (stereo not given)	inconclusive: -59.7%
Cc1nn(C)c(Oc2ccc(Cl)cc2)c1C(=O)Nc1ccc(F)cc1F	active: -60.4%
c1ccc(-n2cnc3cc(NCc4cccs4)ccc32)cc1	inconclusive: -51.3%
Cc1nn(-c2ccccc2)c(C)c1S(=O)(=O)O	inconclusive: -48%
CC(=O)N1CC[n+]2c(-c3ccc([N+](=O)[O-])cc3)csc21	inconclusive: -46.5%
O=C(O)CC1SC(=Nc2cccc(C(F)(F)F)c2)NC1=O (stereo not given)	inactive: 4.52%
COc1ccc(OC)c(CNS(=O)(=O)c2c(C(=O)N3CCC(C)CC3)c(C)n(C)c2C)c1	inconclusive: -46.5%
C=CCNC(=O)Nc1ccc(F)c(Cl)c1	active: -94.3%
O=C(Nc1cccc(C(F)(F)F)c1)C1CCCN(S(=O)(=O)c2cccc3nsnc23)C1 (stereo not given)	inactive: 11.6%
COc1cc2nc(N(CCCN(C)C)C(=O)c3ccc(C(=O)c4ccccc4)cc3)sc2cc1OC	inconclusive: -51%
COc1ccc(C2C(=O)N(C3CCC(C)CC3)CC(=O)N2Cc2ccc(C)cc2)cc1OC (stereo not given)	active: -64.7%
CCCC(=O)N1CCN(c2ccc([N+](=O)[O-])c(NC(C)c3ccccc3)c2)CC1 (stereo not given)	inconclusive: -46.6%

A second format for 2 compounds above:
Compound | activity change, negative = inhibition
Cc1ccc(C)c(C(=O)COC(=O)c2ccccc2N2C(=O)C3C4CCC(C4)C3C2=O)c1 (stereo not given) | inactive: 1.6%
Cc1nn(-c2ccccc2)c(C)c1S(=O)(=O)O | inconclusive: -48%
